The record followed here is paper doi:10.1101/2022.06.02.494603.

Amino acid sequences for entries named in this document (tags omitted). A change or cut given only in a name is not applied to a line headed by its entry.
UniProt Q96CV9: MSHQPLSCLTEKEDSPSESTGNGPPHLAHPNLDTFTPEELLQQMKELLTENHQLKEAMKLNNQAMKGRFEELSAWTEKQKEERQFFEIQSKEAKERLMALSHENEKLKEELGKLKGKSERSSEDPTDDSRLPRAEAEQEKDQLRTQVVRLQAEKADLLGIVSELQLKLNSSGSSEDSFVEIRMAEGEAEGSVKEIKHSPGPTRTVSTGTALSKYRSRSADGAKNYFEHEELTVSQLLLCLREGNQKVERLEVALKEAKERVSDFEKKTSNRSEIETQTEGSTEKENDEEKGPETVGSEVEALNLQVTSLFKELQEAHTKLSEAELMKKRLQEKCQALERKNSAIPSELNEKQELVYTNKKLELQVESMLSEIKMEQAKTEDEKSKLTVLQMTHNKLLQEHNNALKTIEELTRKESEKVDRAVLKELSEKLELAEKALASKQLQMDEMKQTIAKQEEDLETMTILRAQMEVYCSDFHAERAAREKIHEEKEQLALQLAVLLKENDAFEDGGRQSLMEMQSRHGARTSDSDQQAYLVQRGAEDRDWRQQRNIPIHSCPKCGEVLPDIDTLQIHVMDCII
UniProt Q9UHD2: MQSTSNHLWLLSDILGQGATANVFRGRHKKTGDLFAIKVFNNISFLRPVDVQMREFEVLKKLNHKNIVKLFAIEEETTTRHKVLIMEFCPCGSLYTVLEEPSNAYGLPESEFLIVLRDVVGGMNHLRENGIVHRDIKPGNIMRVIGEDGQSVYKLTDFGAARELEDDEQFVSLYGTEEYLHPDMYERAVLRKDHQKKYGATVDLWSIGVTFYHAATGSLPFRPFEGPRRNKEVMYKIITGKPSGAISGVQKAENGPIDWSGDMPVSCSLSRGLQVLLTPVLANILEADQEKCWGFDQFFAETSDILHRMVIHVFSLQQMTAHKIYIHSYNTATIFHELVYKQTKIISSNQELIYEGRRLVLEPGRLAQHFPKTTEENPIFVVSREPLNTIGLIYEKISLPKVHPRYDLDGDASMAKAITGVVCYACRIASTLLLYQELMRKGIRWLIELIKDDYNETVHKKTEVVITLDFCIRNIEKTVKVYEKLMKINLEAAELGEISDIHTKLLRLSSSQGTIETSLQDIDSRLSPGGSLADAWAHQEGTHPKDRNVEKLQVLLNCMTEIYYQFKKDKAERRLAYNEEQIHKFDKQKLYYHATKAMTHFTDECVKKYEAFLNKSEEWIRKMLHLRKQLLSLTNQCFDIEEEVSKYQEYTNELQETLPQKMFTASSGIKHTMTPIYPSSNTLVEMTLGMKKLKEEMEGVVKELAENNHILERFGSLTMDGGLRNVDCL

No constants are given. Whether binding was seen depends on the method and setting. Binding seen in cells or lysates may run through a third protein. Some results given as binding are weak or reduced against the parent protein; the word gives no strength.

This experiment concerns the target optineurin, C-terminal myc-FLAG-tagged (UniProt Q96CV9). Nature of the experiment: co-IP.
In the case of “TBK1 R308Q, untagged (from UniProt Q9UHD2 1-729)”, the binding entry is on record as “binds”.
The value for “TBK1 del690-729, untagged (from UniProt Q9UHD2 1-689) (domain or fragment)” was “no binding”; that for “TBK1 p.R440X, untagged (from UniProt Q9UHD2 1-439) (domain or fragment)” was “no binding”.
